Experimental data reported in article PMC10783494, “A conserved protein inhibitor brings under check the activity of RNase E in cyanobacteria”.
Construct, isoform or probe ends are uncertain for at least one entry. For part of these data: Weaker means in comparison with the reference protein, sequence or condition of that experiment. At least one verdict was read from the data and is not stated in words by the source.

Assays:
[1] = test system: RneN412 (RNase E catalytic region) (Anabaena PCC 7120); assay: EMSA; conditions: positive control, 2 mM EDTA, 5' monophosphate, 20 mM Tris-HCl pH 8.0, 200 mM NaCl, 0.1 mM DTT, 5% glycerol, 1 mg/ml BSA, 30 min at 30 C, 5% native PAGE at 4 C, recombinant protein, label: 3' FAM
[2] = test system: RneN396 (RNase E catalytic core) (Anabaena PCC 7120); assay: EMSA; conditions: 2 mM EDTA, 5' monophosphate, 20 mM Tris-HCl pH 8.0, 200 mM NaCl, 0.1 mM DTT, 5% glycerol, 30 min at 30 C, recombinant protein, protein details: His tag (pET28a), label: 3' FAM

## GAGACAGUAUUUG [5' p-LU13-FAM]
[1]
  binding result: binds
[2]; RebA (P1) preincubated at >2-fold molar excess, 1 mg/ml …, 5% native PAGE at 4 C
  binding result: binds more weakly
[2]; no RebA, 1 mg/ml BSA, 5% native PAGE at …
  binding result: binds
